Test results as given in PubChem BioAssay AID1439 (NMMLSC, 2008).
Screen size: about 220,000 compounds; about 770 (0.35%) were called active. The shares of active, inactive and inconclusive entries below differ from those in the screen. Rule as the data show it: active = binding response below about 49% or above about 150%; inconclusive = no clear call, values can overlap the other calls; inactive = in between.

Amino acid sequences for entries named in this document (tags omitted).
UniProt P09471, whole entry, looked up: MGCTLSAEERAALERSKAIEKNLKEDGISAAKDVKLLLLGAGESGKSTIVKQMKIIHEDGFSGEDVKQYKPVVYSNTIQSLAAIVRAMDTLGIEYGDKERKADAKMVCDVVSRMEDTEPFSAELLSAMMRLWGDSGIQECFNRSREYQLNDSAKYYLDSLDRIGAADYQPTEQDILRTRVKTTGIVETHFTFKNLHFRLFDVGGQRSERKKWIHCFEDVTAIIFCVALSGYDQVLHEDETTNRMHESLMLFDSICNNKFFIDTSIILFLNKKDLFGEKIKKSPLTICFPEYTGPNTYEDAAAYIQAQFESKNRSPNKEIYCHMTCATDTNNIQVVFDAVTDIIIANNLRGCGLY

Each compound was assayed against Guanine nucleotide-binding protein G(o) subunit alpha (Homo sapiens) (UniProt P09471) (assay: RGS7-Galphao binding modulators, primary screen, biochemical, multiplexed bead flow cytometry (AID 1439;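 also: fluorescent Galphao held in activated GDP-AlF4 state binding bead-coupled RGS7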)). Conditions: at 10 µM, actives lie on both sides.
`Cc1nnc(SCc2cccc3ccccc23)s1` was tested, and the binding response (% of control) was inconclusive: 92.4%.
In the case of `C/C=C/C(=O)Nc1cccc(C2=NOC3(C2)C[C@@H](C(N)=O)N(C(=O)/C(C)=C/C)C3)c1` (stereo partly specified), the binding response (% of control) is reported as inconclusive: 94.2%.
For `COCCNc1ccnc2c(Cl)cccc12`, the binding response (% of control) was inactive: 104%.
For `Cc1ccccc1NC(=O)c1ccc2snnc2c1`, the binding response (% of control) was inconclusive: 104%.
For `N#Cc1c(-c2ccc(F)cc2)c2c([nH]c1=O)-c1ccccc1OC2`, the binding response (% of control) was inconclusive: 95.5%.
With `N#C/C(=C/Nc1ccccc1)c1ccsc1` the binding response (% of control) was inactive: 110%.
In the case of `Cn1cccc1/C=N/N1CCN(Cc2ccccc2)CC1`, the binding response (% of control) is reported as inconclusive: 96.2%.
For `CCNc1nc(NC(C)C)nc(OCCOC(=O)Nc2ccccc2)n1`, the binding response (% of control) was inactive: 94.3%.
With `CCC(CC)C(=O)N=C1SC2CS(=O)(=O)CC2N1CCc1ccc(OC)c(OC)c1` (stereo unspecified) the binding response (% of control) was inconclusive: 63.2%.
For `COc1ccc(NC(=O)CN2CCC3(O)CCCCC3C2c2cc(OC)ccc2OC)cc1` (stereo unspecified), the binding response (% of control) was inactive: 113%.
In the case of `COC(=O)c1sc(N2C(=O)C(=O)/C(=C(/O)c3ccc(C)cc3)C2c2ccco2)nc1C` (stereo unspecified), the binding response (% of control) is reported as inconclusive: 132%.
`COc1ccc(/C=C/C(=O)NC(=S)NCc2ccccc2)cc1OC` was tested, and the binding response (% of control) was inconclusive: 110%.
For `CCOc1ccccc1N1CN(C2CCCCC2)CNC1=S`, the binding response (% of control) was inconclusive: 27.6%.
With `N/C(=N\OC(=O)c1ccc(Cl)cc1)c1[nH]ncc1Br` the binding response (% of control) was inconclusive: 98.7%.
For `COc1ccc(CN2CCNC(=O)C2CC(=O)NCCC2=CCCCC2)cc1OC` (stereo unspecified), the binding response (% of control) was inactive: 102%.
With `O=c1[nH]c(CSc2ncnc3sccc23)nc2cc(C(F)(F)F)ccc12` the binding response (% of control) was inconclusive: 87.4%.
For `Cc1cccc(C)c1Nc1c(-c2ccccn2)nc2ccccn12`, the binding response (% of control) was inactive: 106%.
For `CN(c1cccnc1)c1ncnc2[nH]ncc12`, the binding response (% of control) was inconclusive: 104%.
With `O=C(CN1CCN(C/C=C/c2ccccc2)CC1)NCc1ccccc1` the binding response (% of control) was inconclusive: 105%.
`CCOC(=O)c1ccc(NC(=O)CC2C(=O)N(c3ccc(F)cc3)C(=O)N2CCC(C)C)cc1` (stereo unspecified) was tested, and the binding response (% of control) was inactive: 105%.
For `COc1ccc(NC(=O)CCSCCc2ccccn2)cc1OC`, the binding response (% of control) was inactive: 101%.
`COC(=O)C1=C(C)N(Cc2ccco2)C(=O)/C1=C\c1ccc(N(C)C)cc1` was tested, and the binding response (% of control) was inactive: 110%.
With `Cc1cc(=O)oc(C)c1C(=O)NCCN(C)Cc1ccccc1` the binding response (% of control) was inconclusive: 95.5%.
For `CCOc1ccc(CN(C)CC(=O)Nc2cccc(S(=O)(=O)N(C)c3ccccc3)c2)cc1`, the binding response (% of control) was inconclusive: 83.1%.
`Nc1cccc(CCc2nc3cc4ccccc4cc3[nH]2)c1` was tested, and the binding response (% of control) was inactive: 82.6%.
For `O=C(CCCn1c(=O)[nH]c2cc(Cl)ccc2c1=O)NCCCN1CCN(c2ccc(F)cc2)CC1`, the binding response (% of control) was inactive: 104%.
For `O=C(NCC1CCCO1)c1cccc(S(=O)(=O)NCc2ccccc2)c1` (stereo unspecified), the binding response (% of control) was inactive: 98.7%.
`O=C1CCN(S(=O)(=O)c2ccccc2)CCN1CCOCc1cccc(F)c1` was tested, and the binding response (% of control) was inconclusive: 127%.
With `CCOC(=O)c1[nH]c2ccc(OC)cc2c1NC(C)=O` the binding response (% of control) was inactive: 121%.
For `COc1ccc2c(c1)O/C(=C\c1ccco1)C2=O`, the binding response (% of control) was inconclusive: 86.5%.
In the case of `COCCN(C(=S)Nc1c(C)cccc1C)C(C)c1ccco1` (stereo unspecified), the binding response (% of control) is reported as inconclusive: 84.9%.
`N#C/C(=C\c1ccccc1[N+](=O)[O-])C(=O)NCc1ccccc1` was tested, and the binding response (% of control) was inconclusive: 153%.
With `O=S(=O)(Nc1ccc2cn[nH]c2c1)c1ccccc1` the binding response (% of control) was inconclusive: 85.7%.
With `CCOC(=O)CNC(=S)SC` the binding response (% of control) was inconclusive: 80.6%.
For `Cc1ccc(-c2nc3cccnc3s2)cc1NS(=O)(=O)c1ccc2c(c1)CCCC2`, the binding response (% of control) was active: 32.5%.
In the case of `CC(C)=NOc1nc(N(C)C)nc(N2CCOCC2)n1`, the binding response (% of control) is reported as inconclusive: 112%.
`Cc1cccc(NC(=S)N2CCCN(c3ncccc3[N+](=O)[O-])CC2)c1` was tested, and the binding response (% of control) was inconclusive: 105%.
For `NS(=O)(=O)c1ccc(NC(=O)COC(=O)/C(=C/c2cccs2)c2cccs2)cc1`, the binding response (% of control) was inconclusive: 75.9%.
For `S=c1[nH]nc(-c2ccc(Cl)cc2)n1/N=C/C=C/c1ccco1`, the binding response (% of control) was inconclusive: 85.4%.
With `CC1CCc2c(sc(NC(=O)COC(=O)C3CCCO3)c2C#N)C1` (stereo unspecified) the binding response (% of control) was inconclusive: 94.8%.
For `N#Cc1ccc(-c2cccnc2)nc1SCC(N)=O`, the binding response (% of control) was inconclusive: 110%.
`Nc1nc(N2CCOCC2)nc(N(c2ccccc2)c2ccccc2)n1` was tested, and the binding response (% of control) was inactive: 98.1%.
With `CC(=O)c1ccc(NC(=S)NNC(=O)NC2CCCCC2)cc1` the binding response (% of control) was inconclusive: 109%.
For `CCOC(=O)COc1ccc2c(=O)c(-c3ccccc3)coc2c1`, the binding response (% of control) was inconclusive: 94.7%.
`O=c1oc2c(O)c(O)cc3c(=O)oc4c(O)c(O)cc1c4c23` was tested, and the binding response (% of control) was active: 31%.
With `O=C(NCC1CCCO1)c1ccc(NS(=O)(=O)c2cccs2)cc1` (stereo unspecified) the binding response (% of control) was inconclusive: 117%.
With `Cc1ccc(S(=O)(=O)N(c2ccc(Br)cc2)C2C=CS(=O)(=O)C2)cc1` (stereo unspecified) the binding response (% of control) was inconclusive: 118%.
`CC(=O)OC(COC1C[C@@H]2CC[C@@]1(C)C2(C)C)C[N+]1(C)CCCCC1` (stereo partly specified) was tested, and the binding response (% of control) was inconclusive: 64.8%.
In the case of `CC(C)OP(=O)(OC(C)C)C(Nc1ccccc1)c1cccc([N+](=O)[O-])c1` (stereo unspecified), the binding response (% of control) is reported as inconclusive: 97.6%.
For `CC(=O)CCc1oc2ccccc2c1-c1ccccc1`, the binding response (% of control) was inconclusive: 110%.
In the case of `O=C(COC(=O)c1cc[n+]([O-])cc1)Nc1cccc(Cl)c1Cl`, the binding response (% of control) is reported as inconclusive: 93.2%.
In the case of `NS(=O)(=O)c1ccc(CCNC(=O)c2cncc(Br)c2)cc1`, the binding response (% of control) is reported as inactive: 110%.
For `CC(C)Cn1c(S(=O)(=O)O)nc2ccccc21`, the binding response (% of control) was inconclusive: 96%.
`Cc1ccccc1/C=N/n1c(-c2ccccn2)n[nH]c1=S` was tested, and the binding response (% of control) was inconclusive: 114%.
In the case of `O=C(O)CSCC(=O)N1CCN(S(=O)(=O)c2cc(Cl)cc(Cl)c2)CC1`, the binding response (% of control) is reported as inconclusive: 94.2%.
`CC1CC(=O)Nc2ccccc2N1S(=O)(=O)c1ccc(C#N)cc1` (stereo unspecified) was tested, and the binding response (% of control) was inconclusive: 94.2%.
With `CC(Oc1ccccc1)C(=O)N/N=C/c1ccccn1` (stereo unspecified) the binding response (% of control) was inactive: 101%.
With `COc1ccc(Cc2noc(CN(C)CCN3CCc4ccccc4C3)n2)cc1OC` the binding response (% of control) was inactive: 105%.
For `Cc1nc2c(cc1C#N)C(=O)c1ccccc1-2`, the binding response (% of control) was inactive: 85.1%.
`C=C1CCN([C@H](C(=O)OCc2cccc(C)c2)C(C)C)S(=O)(=O)c2ccccc21` was tested, and the binding response (% of control) was inconclusive: 52.3%.
In the case of `COC(=O)c1ccc(COc2ccc(/C=N/NC(=O)C(=O)Nc3ccc(OC)cc3)cc2OC)o1`, the binding response (% of control) is reported as inconclusive: 91.8%.
`S=C(Nc1ccccc1)Nc1cccc(Br)c1` was tested, and the binding response (% of control) was inconclusive: 95.1%.
For `COC(=O)C(C(=O)OC)C(c1ccccc1)C(C(=O)c1ccccc1)[N+](=O)[O-]` (stereo unspecified), the binding response (% of control) was inconclusive: 65.1%.
In the case of `COC(=O)Cc1[nH]n(-c2nc3ccccc3s2)c(=O)c1C(C)=Nc1ccc(Cl)cc1`, the binding response (% of control) is reported as inconclusive: 70.5%.
`CC1=NN(C(=O)CCc2ccc3c(c2)OCO3)C(O)(C(F)(F)F)C1` (stereo unspecified) was tested, and the binding response (% of control) was inactive: 99.5%.
In the case of `CCOc1ccc(Nc2nc(N)c([N+](=O)[O-])c(NCc3ccccc3)n2)cc1`, the binding response (% of control) is reported as inconclusive: 68.1%.
For `COC(=O)/C=C1/SC(=Nc2ccc(Cl)c(Cl)c2)NC1=O`, the binding response (% of control) was inconclusive: -454%.
For `Cc1ccc(Nc2nc(/N=C/N(C)C)n[nH]2)cc1C`, the binding response (% of control) was inconclusive: 101%.
In the case of `COc1cc(NC(=O)c2cccc(Br)c2)nc(OC)n1`, the binding response (% of control) is reported as inactive: 101%.
With `Cc1cccc(Sc2nc(-c3ccccc3)ncc2C(=O)O)c1` the binding response (% of control) was inactive: 95.7%.
With `CCOc1ccc(-c2c(C(=O)N/N=C/c3ccccc3)nnn2-c2nonc2N)cc1` the binding response (% of control) was inconclusive: 70.6%.
For `Cc1[nH][nH]c(=O)c1C(c1ccc([N+](=O)[O-])cc1)c1c(C)[nH][nH]c1=O`, the binding response (% of control) was inconclusive: 106%.
`O=C1CCN(CCc2ccccc2)CCN1[C@H](CSc1ccc(Br)cc1)c1ccccc1` was tested, and the binding response (% of control) was inconclusive: 106%.
With `COC(=O)c1c(NC(=O)C(Cl)Cl)sc2c1C(C(=O)OC)CC2` (stereo unspecified) the binding response (% of control) was inconclusive: 97.9%.
`CCCN(CCC)S(=O)(=O)c1ccc(Cl)c([N+](=O)[O-])c1` was tested, and the binding response (% of control) was inconclusive: 122%.
`CCOC(=O)c1c(C)oc2c1c1c(c3ccccc32)OCN(CCCC(=O)O)C1` was tested, and the binding response (% of control) was inconclusive: 143%.
`O=C(c1cc([N+](=O)[O-])cc([N+](=O)[O-])c1)N1CCN(C(=O)c2ccco2)CC1` was tested, and the binding response (% of control) was inconclusive: 119%.
For `CN(C)c1ccc(C=NC(CO)C(O)c2ccc([N+](=O)[O-])cc2)cc1` (stereo unspecified), the binding response (% of control) was inconclusive: 104%.
For `COc1ccc(C2CC(c3cccc(OC)c3OC)n3nnnc3N2)cc1` (stereo unspecified), the binding response (% of control) was inactive: 100%.
In the case of `COc1ccc(/C=C2\SC(=O)N(CC(=O)NCCC(C)C)C2=O)cc1OC`, the binding response (% of control) is reported as inconclusive: 184%.
`Cc1nn(-c2ccccc2)c(Cl)c1/C=N/NC(=O)c1ccncc1` was tested, and the binding response (% of control) was inconclusive: 117%.
For `O=C(Cn1ccc(C(F)(F)F)n1)Nc1cccc(S(=O)(=O)N2CCCCC2)c1`, the binding response (% of control) was inconclusive: 107%.
In the case of `CC/C(C)=N/Oc1nc(C)cc(C)n1`, the binding response (% of control) is reported as inconclusive: 100%.
With `O=C1C(Nc2ccccc2)=CC(c2ccc(O)cc2)N1c1ccccc1` (stereo unspecified) the binding response (% of control) was inconclusive: 112%.
In the case of `CCC(C)SCC(=O)Nc1ccc(S(=O)(=O)N2CCOCC2)cc1OC` (stereo unspecified), the binding response (% of control) is reported as inconclusive: -41.8%.
For `Cn1[nH]c(C(F)(F)F)c(C=Nc2ccc(Cl)cc2)c1=O`, the binding response (% of control) was inconclusive: 100%.
For `CC(=O)c1cccc(CN2CCN(CC=C(C)C)C(CCO)C2)c1` (stereo unspecified), the binding response (% of control) was inconclusive: -56.2%.
`CC(C)Sc1nc(SCC(=O)O)c2c3c(sc2n1)COC(C)(C)C3` was tested, and the binding response (% of control) was inconclusive: 107%.
`Cc1ccc(S(=O)(=O)N(CC(=O)O)Cc2ccco2)cc1` was tested, and the binding response (% of control) was inconclusive: 80.5%.
For `O=[N+]([O-])c1cccc(S(=O)(=O)Nc2ccc(Cc3ccncc3)cc2)c1`, the binding response (% of control) was inconclusive: 45.2%.
With `Cc1ccc(NC(=O)C2CCCN2S(=O)(=O)c2ccc3c(c2)n(C)c(=O)c(=O)n3C)c(C)c1` (stereo unspecified) the binding response (% of control) was inconclusive: 95.1%.
